According to paper PMC12408324:
These are yes or no findings as the source states them, for the method shown. In cells and extracts the contact can be indirect. A yes stands for co-enrichment or nearness to the bait. Other partners may have been found. Sequences can lack the tags named with a protein.

The chains behind the UniProt entries cited, without tags or fusion partners.
UniProt P19474: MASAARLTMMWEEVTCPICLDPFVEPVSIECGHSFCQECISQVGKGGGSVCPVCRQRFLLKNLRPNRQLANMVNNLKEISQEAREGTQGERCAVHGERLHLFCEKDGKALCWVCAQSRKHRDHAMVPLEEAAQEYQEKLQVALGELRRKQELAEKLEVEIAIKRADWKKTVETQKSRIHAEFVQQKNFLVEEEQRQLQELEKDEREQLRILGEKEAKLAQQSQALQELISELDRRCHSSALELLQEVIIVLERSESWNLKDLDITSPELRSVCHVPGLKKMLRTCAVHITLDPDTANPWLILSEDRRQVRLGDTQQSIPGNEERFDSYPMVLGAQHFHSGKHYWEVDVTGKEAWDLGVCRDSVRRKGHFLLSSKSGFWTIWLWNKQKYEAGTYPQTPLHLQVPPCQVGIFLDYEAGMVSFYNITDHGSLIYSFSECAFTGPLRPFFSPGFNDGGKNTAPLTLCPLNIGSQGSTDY

Molecular target: T1, Flag-tagged ID1 (human) (UniProt P41134)
T1 sequence: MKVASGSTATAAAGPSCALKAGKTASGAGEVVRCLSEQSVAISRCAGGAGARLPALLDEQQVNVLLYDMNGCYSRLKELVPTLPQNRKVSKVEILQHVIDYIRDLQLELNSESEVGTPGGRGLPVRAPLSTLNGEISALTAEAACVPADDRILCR
Assay: affinity purification with mass spectrometry; immunoprecipitate from ID1-overexpressing cells under normoxic conditions, trypsin digestion, LC-MS/MS (Q-Exactive), search against SwissProt

binding: binds
Substance: TRIM21 (Tripartite motif-containing protein 21) (from UniProt P19474 1-475)
